Assay results reported in paper PMC7738986.
No constants are given. Whether binding was seen depends on the method and setting. Binding seen in cells or lysates may run through a third protein. Some binding calls cover weakened binding; strength is not graded here.

Target: T1, USP43 protein (over-expressed) (UniProt Q70EL4)
T1 sequence: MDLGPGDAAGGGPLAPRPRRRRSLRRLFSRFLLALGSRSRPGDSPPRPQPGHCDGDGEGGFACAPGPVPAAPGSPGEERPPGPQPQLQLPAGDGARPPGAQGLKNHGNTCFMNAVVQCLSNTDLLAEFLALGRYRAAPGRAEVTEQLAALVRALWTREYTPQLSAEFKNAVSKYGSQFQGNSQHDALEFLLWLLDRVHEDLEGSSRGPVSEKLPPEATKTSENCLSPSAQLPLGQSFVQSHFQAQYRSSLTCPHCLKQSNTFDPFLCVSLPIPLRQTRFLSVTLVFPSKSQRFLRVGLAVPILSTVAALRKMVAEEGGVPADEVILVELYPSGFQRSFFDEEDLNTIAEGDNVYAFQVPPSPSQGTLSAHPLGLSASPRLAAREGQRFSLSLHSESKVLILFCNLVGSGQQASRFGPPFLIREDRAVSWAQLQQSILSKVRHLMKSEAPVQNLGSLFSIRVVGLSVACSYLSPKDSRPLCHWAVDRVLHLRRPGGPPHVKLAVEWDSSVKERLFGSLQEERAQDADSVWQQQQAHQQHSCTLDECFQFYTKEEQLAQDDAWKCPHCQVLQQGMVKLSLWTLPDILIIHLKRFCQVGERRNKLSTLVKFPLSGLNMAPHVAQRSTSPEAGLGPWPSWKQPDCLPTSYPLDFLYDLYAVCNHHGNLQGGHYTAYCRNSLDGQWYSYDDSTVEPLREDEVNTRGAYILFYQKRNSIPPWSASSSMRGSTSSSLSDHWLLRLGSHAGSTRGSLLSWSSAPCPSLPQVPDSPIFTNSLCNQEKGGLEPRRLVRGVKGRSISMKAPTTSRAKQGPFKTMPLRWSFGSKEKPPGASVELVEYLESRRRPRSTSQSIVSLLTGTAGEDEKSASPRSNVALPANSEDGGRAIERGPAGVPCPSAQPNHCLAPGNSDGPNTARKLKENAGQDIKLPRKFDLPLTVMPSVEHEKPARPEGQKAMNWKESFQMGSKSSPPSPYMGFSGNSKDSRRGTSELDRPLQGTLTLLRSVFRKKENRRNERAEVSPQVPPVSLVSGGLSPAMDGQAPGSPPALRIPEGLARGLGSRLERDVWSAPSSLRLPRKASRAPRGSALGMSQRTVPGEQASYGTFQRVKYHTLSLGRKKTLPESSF
Experiment: co-IP; forward and reverse co-IP in USP43 overexpression DLD1 cells (text; the legend names 293T cells); lysate (RIPA buffer) incubated 1 h at room temperature with antibody-conjugated magnetic beads

binding: binds
B1: ZEB1 protein (in USP43 overexpression DLD1 cells) (protein, UniProt P37275 1-1124)
chain: MADGPRCKRRKQANPRRNNVTNYNTVVETNSDSDDEDKLHIVEEESVTDAADCEGVPEDDLPTDQTVLPGRSSEREGNAKNCWEDDRKEGQEILGPEAQADEAGCTVKDDECESDAENEQNHDPNVEEFLQQQDTAVIFPEAPEEDQRQGTPEASGHDENGTPDAFSQLLTCPYCDRGYKRFTSLKEHIKYRHEKNEDNFSCSLCSYTFAYRTQLERHMTSHKSGRDQRHVTQSGCNRKFKCTECGKAFKYKHHLKEHLRIHSGEKPYECPNCKKRFSHSGSYSSHISSKKCISLIPVNGRPRTGLKTSQCSSPSLSASPGSPTRPQIRQKIENKPLQEQLSVNQIKTEPVDYEFKPIVVASGINCSTPLQNGVFTGGGPLQATSSPQGMVQAVVLPTVGLVSPISINLSDIQNVLKVAVDGNVIRQVLENNQANLASKEQETINASPIQQGGHSVISAISLPLVDQDGTTKIIINYSLEQPSQLQVVPQNLKKENPVATNSCKSEKLPEDLTVKSEKDKSFEGGVNDSTCLLCDDCPGDINALPELKHYDLKQPTQPPPLPAAEAEKPESSVSSATGDGNLSPSQPPLKNLLSLLKAYYALNAQPSAEELSKIADSVNLPLDVVKKWFEKMQAGQISVQSSEPSSPEPGKVNIPAKNNDQPQSANANEPQDSTVNLQSPLKMTNSPVLPVGSTTNGSRSSTPSPSPLNLSSSRNTQGYLYTAEGAQEEPQVEPLDLSLPKQQGELLERSTITSVYQNSVYSVQEEPLNLSCAKKEPQKDSCVTDSEPVVNVIPPSANPINIAIPTVTAQLPTIVAIADQNSVPCLRALAANKQTILIPQVAYTYSTTVSPAVQEPPLKVIQPNGNQDERQDTSSEGVSNVEDQNDSDSTPPKKKMRKTENGMYACDLCDKIFQKSSSLLRHKYEHTGKRPHECGICKKAFKHKHHLIEHMRLHSGEKPYQCDKCGKRFSHSGSYSQHMNHRYSYCKREAEERDSTEQEEAGPEILSNEHVGARASPSQGDSDERESLTREEDEDSEKEEEEEDKEMEELQEEKECEKPQGDEEEEEEEEEVEEEEVEEAENEGEEAKTEGLMKDDRAESQASSLGQKVGESSEQVSEEKTNEA
